Reference: US20210180023A1, “CARDIAC REPAIR BY REPROGRAMMING OF ADULT CARDIAC FIBROBLASTS INTO CARDIOMYOCYTES” (The Board of Regents of the University of Texas System, priority 2017, published 2021)
Results are given in words; binding and its absence hold for the method and conditions named. In cells and extracts the contact can be indirect. Some entries that bind do so weakly or less than the wild type. Where a sequence is shown, tags or fusion partners need not be part of it.

Amino acid sequences for entries named in this document (tags omitted). A change or cut given only in a name is not applied to a line headed by its entry.
UniProt P43694: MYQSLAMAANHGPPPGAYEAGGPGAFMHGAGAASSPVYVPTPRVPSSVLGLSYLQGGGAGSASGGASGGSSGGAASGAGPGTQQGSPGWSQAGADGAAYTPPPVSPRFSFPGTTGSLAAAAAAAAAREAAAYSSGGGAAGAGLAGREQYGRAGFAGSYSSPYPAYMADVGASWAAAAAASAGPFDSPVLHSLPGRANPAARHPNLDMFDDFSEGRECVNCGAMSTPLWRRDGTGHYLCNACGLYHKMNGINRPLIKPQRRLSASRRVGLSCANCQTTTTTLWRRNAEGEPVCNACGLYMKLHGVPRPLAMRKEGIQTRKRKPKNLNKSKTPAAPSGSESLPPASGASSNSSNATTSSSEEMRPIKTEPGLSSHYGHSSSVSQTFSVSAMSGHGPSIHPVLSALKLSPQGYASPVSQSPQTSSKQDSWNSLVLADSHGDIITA

Key:
[1] = molecular target: myc-epitope tag fusion GATA4 (human) (UniProt P43694); assay: co-immunoprecipitation from transfected HEK293 cells (legend of FIG. 6A)
[2] = molecular target: myc-epitope tag fusion GATA4 (human) (UniProt P43694); assay: co-immunoprecipitation from transfected HEK293 cells (refers to FIG. 6A)
[3] = molecular target: myc-epitope tag fusion GATA4 (human) (UniProt P43694); assay: co-immunoprecipitation from transfected HEK293 cells (anti-FLAG IP, anti-Myc blot)

Measured: binding

B1: Flag-epitope tag ZNF281 fusion protein (protein, not shown: small tags and cut ends)
chain: MKIGSGFLSGGGGTGSSGGSGSGGGGSGGGGGGGSSGRRAEMEPTFPQGMVMFNHRLPPVTSFTRPAGSAAPPPQCVLSSSTSAAPAAEPPPPPAPDMTFKKEPAASAAAFPSQRTSWGFLQSLVSIKQEKPADPEEQQSHHHHHHHHYGGLFAGAEERSPGLGGGEGGSHGVIQDLSILHQHVQQQPAQHHRDVLLSSSSRTDDHHGTEEPKQDTNVKKAKRPKPESQGIKAKRKPSASSKPSLVGDGEGAILSPSQKPHICDHCSAAFRSSYHLRRHVLIHTGERPFQCSQCSMGFIQKYLLQRHEKIHSREKPFGCDQCSMKFIQKYHMERHKRTHSGEKPYKCDTCQQYFSRTDRLLKHRRTCGEVIVKGATSAEPGSSNHTNMGNLAVLSQGNTSSSRRKTKSKSIAIENKEQKTGKTNESQISNNINMQSYSVEMPTVSSSGGIIGTGIDELQKRVPKLIFKKGSRKNTDKNYLNFVSPLPDIVGQKSLSGKPSGSLGIVSNNSVETIGLLQSTSGKQGQISSNYDDAMQFSKKRRYLPTASSNSAFSINVGHMVSQQSVIQSAGVSVLDNEAPLSLIDSSALNAEIKSCHDKSGIPDEVLQSILDQYSNKSESQKEDPFNIAEPRVDLHTSGEHSELVQEENLSPGTQTPSNDKASMLQEYSKYLQQAFEKSTNASFTLGHGFQFVSLSSPLHNHTLFPEKQIYTTSPLECGFGQSVTSVLPSSLPKPPFGMLFGSQPGLYLSALDATHQQLTPSQELDDLIDSQKNLETSSAFQSSSQKLTSQKEQKNLESSTGFQIPSQELASQIDPQKDIEPRTTYQIENFAQAFGSQFKSGSRVPMTFITNSNGEVDHRVRTSVSDFSGYTNMMSDVSEPCSTRVKTPTSQSYR
binds: [1] | [2] | [3]
